Measured values from PubChem BioAssay AID2662 (National Center for Advancing Translational Sciences (NCATS), 2010).
Hit rate of the full screen: of about 290,000 compounds, about 110 (0.038%) were called active. Inconclusive means that the source gave no clear call. Such entries were picked first, then a sample of the others. Calls come from the whole dose curve; as a rule, active = well fitted inhibition curve with a large enough effect in the polarisation, with a control signal flat (not every such curve was filed as active); inconclusive = small, poorly fitted or top-dose-only effect, or effect the other way, or a change in a side signal; inactive = no such curve, though single readings can be large or run the other way; the % refers to the polarisation. Where the call is inconclusive, the potency comes from a doubtful curve fit. A note “side channel” means that the fit belongs to a control or component signal, not to the main read-out.

Protein sequences, listed by entry. Tags and fused reporters are not part of them.
UniProt Q03164, whole entry, looked up: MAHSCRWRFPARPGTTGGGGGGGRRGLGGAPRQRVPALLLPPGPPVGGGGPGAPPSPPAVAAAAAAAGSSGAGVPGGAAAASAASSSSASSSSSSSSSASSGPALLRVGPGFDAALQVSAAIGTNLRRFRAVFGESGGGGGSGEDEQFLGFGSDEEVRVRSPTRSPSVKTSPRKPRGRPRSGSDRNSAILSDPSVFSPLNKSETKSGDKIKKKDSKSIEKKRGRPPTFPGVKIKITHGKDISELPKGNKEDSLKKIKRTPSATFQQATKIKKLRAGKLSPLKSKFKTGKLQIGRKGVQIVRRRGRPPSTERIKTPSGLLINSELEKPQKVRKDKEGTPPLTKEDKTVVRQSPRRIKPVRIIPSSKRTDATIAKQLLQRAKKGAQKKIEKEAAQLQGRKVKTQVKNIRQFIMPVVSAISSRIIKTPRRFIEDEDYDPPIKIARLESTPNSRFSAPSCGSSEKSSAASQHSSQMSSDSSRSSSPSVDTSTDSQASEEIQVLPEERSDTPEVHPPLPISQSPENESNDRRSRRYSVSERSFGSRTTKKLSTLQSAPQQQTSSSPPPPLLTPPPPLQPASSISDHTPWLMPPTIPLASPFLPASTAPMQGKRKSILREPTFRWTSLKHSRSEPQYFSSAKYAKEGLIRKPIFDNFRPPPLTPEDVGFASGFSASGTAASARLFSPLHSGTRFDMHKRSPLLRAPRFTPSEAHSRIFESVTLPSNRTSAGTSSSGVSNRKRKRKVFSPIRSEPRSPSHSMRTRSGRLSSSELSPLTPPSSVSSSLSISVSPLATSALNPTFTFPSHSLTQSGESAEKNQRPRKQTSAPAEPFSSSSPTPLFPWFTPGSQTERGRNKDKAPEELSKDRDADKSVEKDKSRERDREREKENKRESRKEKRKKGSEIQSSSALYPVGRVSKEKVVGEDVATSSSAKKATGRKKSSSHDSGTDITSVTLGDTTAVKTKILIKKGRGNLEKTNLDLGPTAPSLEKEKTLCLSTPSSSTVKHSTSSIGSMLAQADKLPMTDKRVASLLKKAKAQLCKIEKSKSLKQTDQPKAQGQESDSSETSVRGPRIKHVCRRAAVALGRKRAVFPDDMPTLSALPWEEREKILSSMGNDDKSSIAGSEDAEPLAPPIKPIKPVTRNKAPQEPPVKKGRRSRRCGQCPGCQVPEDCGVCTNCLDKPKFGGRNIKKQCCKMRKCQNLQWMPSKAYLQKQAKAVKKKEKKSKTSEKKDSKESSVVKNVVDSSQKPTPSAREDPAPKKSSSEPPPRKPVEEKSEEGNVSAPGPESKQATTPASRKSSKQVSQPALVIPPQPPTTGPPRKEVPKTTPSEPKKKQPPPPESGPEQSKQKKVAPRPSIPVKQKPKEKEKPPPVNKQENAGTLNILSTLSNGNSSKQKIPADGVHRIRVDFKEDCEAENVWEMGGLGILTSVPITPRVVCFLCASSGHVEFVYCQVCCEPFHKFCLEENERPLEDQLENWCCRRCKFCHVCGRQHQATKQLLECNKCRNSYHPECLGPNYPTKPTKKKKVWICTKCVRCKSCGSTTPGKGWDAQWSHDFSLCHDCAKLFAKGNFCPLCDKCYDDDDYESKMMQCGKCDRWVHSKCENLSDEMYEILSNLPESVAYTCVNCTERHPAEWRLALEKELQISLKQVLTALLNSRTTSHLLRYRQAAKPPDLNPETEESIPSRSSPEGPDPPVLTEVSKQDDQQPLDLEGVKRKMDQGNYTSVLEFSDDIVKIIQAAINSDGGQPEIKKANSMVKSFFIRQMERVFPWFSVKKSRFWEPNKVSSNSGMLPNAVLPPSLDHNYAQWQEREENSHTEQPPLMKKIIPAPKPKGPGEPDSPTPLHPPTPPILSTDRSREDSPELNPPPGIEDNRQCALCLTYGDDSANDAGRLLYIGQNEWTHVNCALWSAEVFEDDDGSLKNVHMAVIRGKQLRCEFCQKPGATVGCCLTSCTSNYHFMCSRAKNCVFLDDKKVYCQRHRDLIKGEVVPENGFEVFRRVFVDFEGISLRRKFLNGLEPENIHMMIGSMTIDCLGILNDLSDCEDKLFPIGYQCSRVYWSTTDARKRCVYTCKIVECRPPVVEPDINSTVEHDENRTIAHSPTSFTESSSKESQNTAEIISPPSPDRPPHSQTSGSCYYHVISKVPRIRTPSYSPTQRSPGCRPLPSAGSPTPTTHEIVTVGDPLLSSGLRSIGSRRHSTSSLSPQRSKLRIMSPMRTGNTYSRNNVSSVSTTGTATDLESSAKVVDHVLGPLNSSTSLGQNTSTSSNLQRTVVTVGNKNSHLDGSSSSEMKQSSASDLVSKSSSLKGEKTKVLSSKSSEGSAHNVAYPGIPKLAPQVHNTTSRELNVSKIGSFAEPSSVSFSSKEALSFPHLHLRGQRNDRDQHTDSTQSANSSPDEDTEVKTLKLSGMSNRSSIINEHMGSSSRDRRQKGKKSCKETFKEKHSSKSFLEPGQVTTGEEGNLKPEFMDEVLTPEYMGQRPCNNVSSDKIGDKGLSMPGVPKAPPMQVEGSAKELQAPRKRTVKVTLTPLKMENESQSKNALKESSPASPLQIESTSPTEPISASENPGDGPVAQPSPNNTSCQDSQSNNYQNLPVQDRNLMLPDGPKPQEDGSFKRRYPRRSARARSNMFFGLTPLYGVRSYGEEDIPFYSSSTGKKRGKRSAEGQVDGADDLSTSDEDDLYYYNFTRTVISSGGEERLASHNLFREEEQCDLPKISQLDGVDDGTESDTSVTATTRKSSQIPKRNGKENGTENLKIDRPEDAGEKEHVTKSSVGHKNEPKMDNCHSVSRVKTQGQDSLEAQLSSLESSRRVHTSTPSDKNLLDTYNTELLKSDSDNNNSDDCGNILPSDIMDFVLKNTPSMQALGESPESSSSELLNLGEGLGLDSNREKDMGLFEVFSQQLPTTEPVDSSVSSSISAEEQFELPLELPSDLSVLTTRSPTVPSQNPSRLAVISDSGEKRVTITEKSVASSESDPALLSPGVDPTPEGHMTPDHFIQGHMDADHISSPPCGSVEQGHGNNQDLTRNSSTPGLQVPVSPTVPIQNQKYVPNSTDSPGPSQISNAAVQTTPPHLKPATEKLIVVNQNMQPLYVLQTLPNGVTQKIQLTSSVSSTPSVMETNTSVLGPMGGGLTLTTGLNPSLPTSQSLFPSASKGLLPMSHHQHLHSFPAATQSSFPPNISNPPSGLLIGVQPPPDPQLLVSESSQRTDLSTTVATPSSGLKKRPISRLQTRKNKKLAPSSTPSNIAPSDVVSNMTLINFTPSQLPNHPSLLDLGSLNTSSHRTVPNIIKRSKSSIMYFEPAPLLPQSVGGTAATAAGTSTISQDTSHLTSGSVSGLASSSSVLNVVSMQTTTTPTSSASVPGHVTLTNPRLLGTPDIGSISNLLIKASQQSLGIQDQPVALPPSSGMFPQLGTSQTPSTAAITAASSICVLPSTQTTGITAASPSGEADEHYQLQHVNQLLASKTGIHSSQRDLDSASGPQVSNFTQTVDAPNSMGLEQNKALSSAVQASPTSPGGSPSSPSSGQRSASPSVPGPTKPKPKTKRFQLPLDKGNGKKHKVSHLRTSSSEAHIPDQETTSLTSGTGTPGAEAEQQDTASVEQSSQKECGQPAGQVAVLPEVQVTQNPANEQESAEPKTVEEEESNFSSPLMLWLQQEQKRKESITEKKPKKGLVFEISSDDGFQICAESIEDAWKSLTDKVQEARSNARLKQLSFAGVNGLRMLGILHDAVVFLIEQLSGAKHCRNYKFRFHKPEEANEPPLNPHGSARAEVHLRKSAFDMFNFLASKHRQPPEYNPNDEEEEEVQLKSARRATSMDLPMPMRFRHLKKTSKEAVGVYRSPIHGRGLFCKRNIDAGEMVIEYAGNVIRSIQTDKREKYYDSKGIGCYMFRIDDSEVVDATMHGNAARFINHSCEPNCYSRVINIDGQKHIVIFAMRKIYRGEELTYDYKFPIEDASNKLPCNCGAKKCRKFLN

target: Histone-lysine N-methyltransferase 2A (Homo sapiens) (UniProt Q03164); assay: qHTS Fluorescence Polarization Assay for Inhibitors of MLL CXXC domain - DNA interaction; settings: MLL-CXXC / FITC-HOXA9 DNA fluorescence polarization; activity change, negative = inhibition: at 115 µM (top of the series)
Method in brief: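 Purified MLL-CXXC (added from a 7 uM solution) was preincubated 5 min at ambient with pinned compounds in 50 mM Tris-HCl pH 7.5, 50 mM NaCl, 1 mM DTT, 0.05% BSA. Fluorescein-labeled HOX-A9 DNA (50 nM solution) followed, 30 min, then polarization read.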
Potency is the fitted concentration of half-maximal effect.

Structure (SMILES) | Potency | activity change, negative = inhibition
CCN(C(=O)COC(=O)CN(C)S(=O)(=O)c1ccc(NC(C)=O)cc1)C1CCS(=O)(=O)C1 (configuration not stated) | inconclusive: 14.1 µM [fluorescent, side channel, single point] | –
COc1ccc(CN(C(=O)CN2C(=O)c3ccccc3S2(=O)=O)C(C(=O)NCC2CCCO2)c2ccncc2)cc1 (configuration not stated) | inconclusive: 79.4 µM [quencher, side channel, single point] | –
Cc1ccc(S(=O)(=O)N2CCN(C(=O)CN3CCCCC3)C2)cc1 | inactive | –
CN(c1ccc(C(=O)Nc2cccnc2)cc1)S(C)(=O)=O | inactive | –
Cc1ccc(C(=O)NCC(=O)N/N=C/c2cccs2)cc1C | inconclusive: 1.41 µM [quencher, side channel, full curve, poor fit] | –
COC1OC(COC(=O)c2ccccc2)C(OC(=O)c2ccccc2)C1OC(=O)c1ccccc1 (configuration not stated) | inactive | –
CN1CCN(C(=O)c2cc(Cl)cc(Cl)c2NC(=O)c2ccco2)CC1 | inconclusive: 8.91 µM [fluorescent, side channel, single point] | –
Cc1cccc(NS(=O)(=O)c2ccc([N+](=O)[O-])cc2)n1 | inactive | –
Cc1cc(-c2nc(C)c(-c3nnc(SCC(=O)Nc4ccc(Cl)cc4)n3C)s2)no1 | inconclusive: 89.1 µM [inhibitor, single point] | –
CCCN(CCC)C(=O)Cn1c(=O)c2sccc2n2c(=S)sc(-c3ccccc3)c12 | inconclusive: 31.6 µM [fluorescent, side channel, partial curve] | –
COCCc1nc2ccc(C(=O)N(C)Cc3cccc(-n4cccn4)c3)cc2o1 | inactive | –
CC(C)NCC(O)COc1cccc2[nH]ccc12 (configuration not stated) | inactive | –
COc1ccc2c(c1)cc(C(=O)N[C@H](C(=O)N1CCC(C(=O)O)CC1)C(C)C)n2C | inactive | –
COC(=O)[C@@H]1C[C@@]2(O)[C@@H](O)[C@@H](O)[C@@H](O)C[C@H]2N1Cc1ccc(C(F)(F)F)cc1 | inconclusive: 1.41 µM [fluorescent, side channel, full curve, poor fit] | –
COc1cc2c(cc1NC(=O)CSc1nnc(COc3ccc(Cl)cc3)n1C)oc1ccccc12 | inconclusive: 39.8 µM [inhibitor, single point] | –
CC(C)(C)c1ccc(NC(=O)CSc2n[nH]c(=O)n2-c2cccnc2)cc1 | inconclusive: 15.8 µM [fluorescent, side channel, full curve, poor fit] | –
Cc1ccc(C)c(N2CCN(CCCNC(=O)Cn3c(=O)c4cccn4c4cccnc43)CC2)c1 | inactive | –
O=S(=O)([N-]c1nc2ccccc2nc1-[n+]1ccc(CCCc2ccccc2)cc1)c1cccs1 | inconclusive: 63.1 µM [fluorescent, side channel, single point] | –
Cc1ccc(NC(=O)CN(C)C(=O)CSc2nnnn2C)cc1 | inconclusive: 100 µM [inhibitor, partial curve, poor fit] | –
COc1ccc(S(=O)(=O)N2CCN(CC(=O)Nc3ccccc3OC)CC2)cc1 | inactive | –
COc1cc(/C=C(/C#N)c2nc3ccccc3[nH]2)ccc1OC(=O)c1ccco1 | inconclusive: 14.1 µM [fluorescent, side channel, full curve] | –

A draw from above in order of SMILES length, falling.
Structure (SMILES) | Potency | activity change, negative = inhibition
CCN(C(=O)COC(=O)CN(C)S(=O)(=O)c1ccc(NC(C)=O)cc1)C1CCS(=O)(=O)C1 (configuration not stated) | inconclusive: 14.1 µM [fluorescent, side channel, single point] | –
COc1ccc2c(c1)cc(C(=O)N[C@H](C(=O)N1CCC(C(=O)O)CC1)C(C)C)n2C | inactive | –
COc1ccc(S(=O)(=O)N2CCN(CC(=O)Nc3ccccc3OC)CC2)cc1 | inactive | –

Continued.

Structure (SMILES) | Potency | activity change, negative = inhibition
Cc1c(Br)c([N+](=O)[O-])nn1CC(=O)Nc1nccs1 | inactive | –
O=C(COC(=O)c1ccccn1)c1cccc(Br)c1 | inconclusive: 7.94 µM [fluorescent, side channel, full curve] | –
Cc1cccc(C(=O)NCC(=O)N2CCN(c3ccc(Cl)cc3)CC2)c1 | inconclusive: 44.7 µM [fluorescent, single point] | –
COC(=O)c1c(NC(=O)CN2CCC3(O)CCCCC3C2c2ccc(OC)cc2OC)sc(C)c1C (configuration not stated) | inactive | –
COc1ccc(C(CCNC(C)c2ccccc2)c2ccc(F)cc2)cc1 (configuration not stated) | inconclusive: 11.2 µM [inhibitor, single point] | –
CCOC(=O)Cn1c(=O)c(-c2cc(Br)ccc2N)nc2ccccc21 | inconclusive: 31.6 µM [fluorescent, side channel, partial curve] | –
COc1ccc(S(=O)(=O)Nc2c(C)ccc3nsnc23)cc1OC | – | inconclusive: -3.07% [quencher]
O=C(N/N=C/CCc1ccccc1)c1ccc(CN2c3cccc4cccc(c34)S2(=O)=O)cc1 | inconclusive: 1.12 µM [fluorescent, side channel, full curve, poor fit] | –
COC(=O)Cn1nc(-c2ccccc2)c2ccccc21 | inconclusive: 15.8 µM [fluorescent, side channel, single point] | –
C[C@H](NC(N)=O)C(=O)N1CCN(S(=O)(=O)c2ccc3ccccc3c2)CC1 | inactive | –
CCOc1cc(C)ccc1OCc1nnc(SCC(=O)Nc2cccc(C(=O)O)c2)n1-c1ccccc1 | inconclusive: 35.5 µM [inhibitor, single point] | –
CCCc1[nH]nc2c1C(c1cccnc1)C(C#N)=C(N)O2 (configuration not stated) | inconclusive: 70.8 µM [inhibitor, single point] | –
COc1cc([C@H]2[C@@H]3CCCC[C@]3(O)CCN2CC(=O)Nc2ccc(C)cc2C)ccc1O | inconclusive: 25.1 µM [inhibitor, partial curve] | –
Cc1cc(CNC(=O)CC2C(=O)NCCN2CC(C)(C)C)nn1C (configuration not stated) | inconclusive: 70.8 µM [inhibitor, single point] | –
NC(N)=N/N=C/c1ccc(OCc2ccc(Cl)cc2Cl)cc1 | inconclusive: 7.94 µM [quencher, side channel, full curve] | –
O=C(Oc1c(-c2ccco2)oc2ccccc2c1=O)c1cccnc1 | inconclusive: 7.94 µM [fluorescent, side channel, partial curve] | –
COc1cc(Cl)c(C)cc1NC(=O)c1ccc2c(SCC(=O)O)c3c(nc2c1)CCCC3 | inactive | –
CC(=O)N1CCN(S(=O)(=O)c2cccc(C(=O)Nc3nc4c(s3)CCCC4)c2)CC1 | inconclusive: 1 µM [inhibitor, partial curve, poor fit] | –
CCNc1nc(NC(C)C)nc(N(C)C#N)n1 | inactive | –
CN1CCc2nc3sc(C(=O)NCc4ccccc4)c(N)c3cc2C1 | inconclusive: 35.5 µM [fluorescent, side channel, partial curve] | –
S=c1[nH]nc(-c2ccc3ncccc3c2)n1-c1ccc2c(c1)OCCO2 | inactive | –

Structure (SMILES) | Potency | activity change, negative = inhibition
Cc1c(C=O)c2ccccn2c1C(=O)c1ccc(Cl)c([N+](=O)[O-])c1 | inconclusive: 10 µM [quencher, side channel, full curve, poor fit] | –
CCC(=O)C1CCCN(C(=O)c2ccc3nc(-c4cccc(OC)c4)oc3c2)C1 (configuration not stated) | inconclusive: 14.1 µM [fluorescent, side channel, single point] | –
CC1(C)Cc2c(c(N3CCOCC3)nc3sc4c(NCCN5CCOCC5)nnnc4c23)CS1 | inconclusive: 39.8 µM [inhibitor, single point] | –
COc1cc(/C=C2/SC(=S)N(C)C2=O)ccc1OC(=O)c1ccco1 | inconclusive: 56.2 µM [fluorescent, side channel, single point] | –
O=C(N=c1ccn(-c2nc3ccccc3nc2NS(=O)(=O)c2ccc(Cl)cc2)cc1)c1cccs1 | inconclusive: 35.5 µM [fluorescent, side channel, partial curve] | –
CSC1=NC2C(N1)N(C)C(=O)N2C (configuration not stated) | inactive | –
CCn1c(C)[n+](CCCS(=O)(=O)[O-])c2cc(Cl)c(Cl)cc21 | inactive | –
O=C(CCc1nc(-c2ccccc2)no1)NCCc1ccccc1 | inactive | –
CCn1ccnc1C(O)c1cccc2ccccc12 (configuration not stated) | inconclusive: 70.8 µM [inhibitor, single point] | –
O=C1CCN(c2ccc([N+](=O)[O-])cc2F)CC1 | inconclusive: 2.51 µM [quencher, side channel, full curve] | –
Nc1c(C(=O)c2cccs2)sc2nsc(SCCN3CCCCC3)c12 | inconclusive: 14.1 µM [fluorescent, side channel, partial curve] | –
Nc1nonc1C(=O)N/N=C/c1cc(Br)ccc1O | inconclusive: 2.82 µM [quencher, side channel, full curve] | –
Cc1ccc2nccc(C(=O)N3CCCC(Nc4ccc(C)c(C)c4)C3)c2c1 (configuration not stated) | inconclusive: 7.08 µM [fluorescent, side channel, full curve] | –
COc1ccc(OC)c(/C=C/c2ccc3cccc(O)c3n2)c1 | inconclusive: 63.1 µM [fluorescent, side channel, single point] | –
COc1ccnc2c1c(=O)n(Cc1ccc(Cl)cc1)c(=O)n2C | inactive | –
O=C(Nc1ccc(S(=O)(=O)Nc2ncccn2)cc1)c1ccc(Cl)c([N+](=O)[O-])c1 | inconclusive: 63.1 µM [inhibitor, single point] | –
Cc1cccc(-n2c(CCn3nc(C)c([N+](=O)[O-])c3C)n[nH]c2=S)c1 | inconclusive: 70.8 µM [fluorescent, side channel, single point] | –
CCCOc1ccc(C(=O)c2nc3c(n2O)CCCCC3)cc1 | inconclusive: 31.6 µM [inhibitor, partial curve, poor fit] | –
CCS(=O)(=O)N1Cc2ccccc2CC1C(=O)N(C)Cc1ccc(OC)c(F)c1 (configuration not stated) | inactive | –
C=CCN1C(=O)/C(=C/c2ccc(O)c(OC)c2)S/C1=N/c1nccs1 | inconclusive: 35.5 µM [fluorescent, side channel, partial curve] | –
